{"sequences": {"note": "Chains of the proteins cited; added tags and fusions are not shown. Lines headed by an entry give the natural chain unless they say otherwise; changes in a name come on top.", "UniProt Q06675": "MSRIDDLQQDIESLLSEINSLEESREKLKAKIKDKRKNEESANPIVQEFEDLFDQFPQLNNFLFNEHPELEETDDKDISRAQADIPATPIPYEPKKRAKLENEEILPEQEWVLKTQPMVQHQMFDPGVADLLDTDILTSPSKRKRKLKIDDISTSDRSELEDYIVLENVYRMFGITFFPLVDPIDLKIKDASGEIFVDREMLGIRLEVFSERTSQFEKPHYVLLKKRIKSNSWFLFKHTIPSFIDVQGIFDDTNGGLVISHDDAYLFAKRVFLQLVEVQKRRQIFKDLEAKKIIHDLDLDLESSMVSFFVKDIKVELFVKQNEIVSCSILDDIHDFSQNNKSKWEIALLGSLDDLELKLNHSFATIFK"}, "source": "paper doi:10.1101/515924", "about": "(bioRxiv, 2019)", "key": {"[1]": {"target": "T1, Sli15 lacking the Bir1-binding domain (N-terminus 1-228 aa) (budding yeast) (UniProt P38283)", "T1 sequence": "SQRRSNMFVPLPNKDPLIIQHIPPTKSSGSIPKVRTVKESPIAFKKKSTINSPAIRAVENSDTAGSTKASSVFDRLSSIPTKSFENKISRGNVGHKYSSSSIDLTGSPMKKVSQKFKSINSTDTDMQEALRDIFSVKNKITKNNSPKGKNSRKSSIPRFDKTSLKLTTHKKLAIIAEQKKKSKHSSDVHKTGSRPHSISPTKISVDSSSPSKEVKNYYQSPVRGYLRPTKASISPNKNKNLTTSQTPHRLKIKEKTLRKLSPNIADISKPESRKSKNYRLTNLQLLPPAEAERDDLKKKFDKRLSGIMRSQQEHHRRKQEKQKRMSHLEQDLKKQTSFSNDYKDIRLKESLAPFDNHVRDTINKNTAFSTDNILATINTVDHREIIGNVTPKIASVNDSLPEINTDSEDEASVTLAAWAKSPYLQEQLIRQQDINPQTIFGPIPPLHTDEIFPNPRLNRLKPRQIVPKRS", "assay": "two-hybrid"}, "Sli15 (budding yeast)": {"target": "T2, Sli15 (budding yeast) (UniProt P38283)", "T2 sequence": "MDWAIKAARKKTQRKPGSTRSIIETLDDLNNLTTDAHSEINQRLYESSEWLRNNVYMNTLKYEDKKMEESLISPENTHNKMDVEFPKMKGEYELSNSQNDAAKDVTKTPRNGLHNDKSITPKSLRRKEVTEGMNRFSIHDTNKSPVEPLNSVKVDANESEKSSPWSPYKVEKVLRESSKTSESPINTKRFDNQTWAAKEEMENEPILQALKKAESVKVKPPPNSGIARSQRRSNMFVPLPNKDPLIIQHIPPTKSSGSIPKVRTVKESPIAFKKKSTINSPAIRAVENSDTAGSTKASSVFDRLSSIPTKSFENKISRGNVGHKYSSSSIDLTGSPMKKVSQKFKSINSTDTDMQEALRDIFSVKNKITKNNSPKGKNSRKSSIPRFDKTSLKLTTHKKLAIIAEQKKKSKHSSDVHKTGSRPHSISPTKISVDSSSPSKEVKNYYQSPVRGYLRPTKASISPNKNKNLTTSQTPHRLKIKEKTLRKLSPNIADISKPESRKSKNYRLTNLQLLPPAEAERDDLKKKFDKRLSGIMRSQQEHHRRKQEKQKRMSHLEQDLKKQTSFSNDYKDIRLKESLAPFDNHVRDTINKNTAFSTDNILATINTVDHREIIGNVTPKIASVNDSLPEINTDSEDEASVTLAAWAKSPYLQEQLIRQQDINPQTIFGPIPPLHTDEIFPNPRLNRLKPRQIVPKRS", "assay": "two-hybrid"}}, "note": "Results are given in words; binding and its absence hold for the method and conditions named. Some results given as binding are weak or reduced against the parent protein; the word gives no strength."}
{"substance": "Mcm21 (from UniProt Q06675 1-368)", "values": [{"measurement": "binding", "setting": "[1]", "result": "binds"}, {"measurement": "binding", "setting": "Sli15 (budding yeast)", "result": "binds"}]}
{"substance": "Mcm21 lacking the flexible N-terminus (1-50 aa) (from UniProt Q06675 51-368) (domain or fragment)", "values": [{"measurement": "binding", "setting": "Sli15 (budding yeast)", "result": "binds"}]}
